Test results as given in the supplement of paper PMC12067093, “Discovery and optimisation of a covalent ligand for TRIM25 and its application to targeted protein ubiquitination” (Chemical Science, 2025).
The list shows a part of the results.

By UniProt entry, the sequences of proteins in these tests, tags left out. Where a name states a change or a piece, a line headed by the entry shows the natural chain unless it says otherwise.
UniProt P78527, whole entry, looked up: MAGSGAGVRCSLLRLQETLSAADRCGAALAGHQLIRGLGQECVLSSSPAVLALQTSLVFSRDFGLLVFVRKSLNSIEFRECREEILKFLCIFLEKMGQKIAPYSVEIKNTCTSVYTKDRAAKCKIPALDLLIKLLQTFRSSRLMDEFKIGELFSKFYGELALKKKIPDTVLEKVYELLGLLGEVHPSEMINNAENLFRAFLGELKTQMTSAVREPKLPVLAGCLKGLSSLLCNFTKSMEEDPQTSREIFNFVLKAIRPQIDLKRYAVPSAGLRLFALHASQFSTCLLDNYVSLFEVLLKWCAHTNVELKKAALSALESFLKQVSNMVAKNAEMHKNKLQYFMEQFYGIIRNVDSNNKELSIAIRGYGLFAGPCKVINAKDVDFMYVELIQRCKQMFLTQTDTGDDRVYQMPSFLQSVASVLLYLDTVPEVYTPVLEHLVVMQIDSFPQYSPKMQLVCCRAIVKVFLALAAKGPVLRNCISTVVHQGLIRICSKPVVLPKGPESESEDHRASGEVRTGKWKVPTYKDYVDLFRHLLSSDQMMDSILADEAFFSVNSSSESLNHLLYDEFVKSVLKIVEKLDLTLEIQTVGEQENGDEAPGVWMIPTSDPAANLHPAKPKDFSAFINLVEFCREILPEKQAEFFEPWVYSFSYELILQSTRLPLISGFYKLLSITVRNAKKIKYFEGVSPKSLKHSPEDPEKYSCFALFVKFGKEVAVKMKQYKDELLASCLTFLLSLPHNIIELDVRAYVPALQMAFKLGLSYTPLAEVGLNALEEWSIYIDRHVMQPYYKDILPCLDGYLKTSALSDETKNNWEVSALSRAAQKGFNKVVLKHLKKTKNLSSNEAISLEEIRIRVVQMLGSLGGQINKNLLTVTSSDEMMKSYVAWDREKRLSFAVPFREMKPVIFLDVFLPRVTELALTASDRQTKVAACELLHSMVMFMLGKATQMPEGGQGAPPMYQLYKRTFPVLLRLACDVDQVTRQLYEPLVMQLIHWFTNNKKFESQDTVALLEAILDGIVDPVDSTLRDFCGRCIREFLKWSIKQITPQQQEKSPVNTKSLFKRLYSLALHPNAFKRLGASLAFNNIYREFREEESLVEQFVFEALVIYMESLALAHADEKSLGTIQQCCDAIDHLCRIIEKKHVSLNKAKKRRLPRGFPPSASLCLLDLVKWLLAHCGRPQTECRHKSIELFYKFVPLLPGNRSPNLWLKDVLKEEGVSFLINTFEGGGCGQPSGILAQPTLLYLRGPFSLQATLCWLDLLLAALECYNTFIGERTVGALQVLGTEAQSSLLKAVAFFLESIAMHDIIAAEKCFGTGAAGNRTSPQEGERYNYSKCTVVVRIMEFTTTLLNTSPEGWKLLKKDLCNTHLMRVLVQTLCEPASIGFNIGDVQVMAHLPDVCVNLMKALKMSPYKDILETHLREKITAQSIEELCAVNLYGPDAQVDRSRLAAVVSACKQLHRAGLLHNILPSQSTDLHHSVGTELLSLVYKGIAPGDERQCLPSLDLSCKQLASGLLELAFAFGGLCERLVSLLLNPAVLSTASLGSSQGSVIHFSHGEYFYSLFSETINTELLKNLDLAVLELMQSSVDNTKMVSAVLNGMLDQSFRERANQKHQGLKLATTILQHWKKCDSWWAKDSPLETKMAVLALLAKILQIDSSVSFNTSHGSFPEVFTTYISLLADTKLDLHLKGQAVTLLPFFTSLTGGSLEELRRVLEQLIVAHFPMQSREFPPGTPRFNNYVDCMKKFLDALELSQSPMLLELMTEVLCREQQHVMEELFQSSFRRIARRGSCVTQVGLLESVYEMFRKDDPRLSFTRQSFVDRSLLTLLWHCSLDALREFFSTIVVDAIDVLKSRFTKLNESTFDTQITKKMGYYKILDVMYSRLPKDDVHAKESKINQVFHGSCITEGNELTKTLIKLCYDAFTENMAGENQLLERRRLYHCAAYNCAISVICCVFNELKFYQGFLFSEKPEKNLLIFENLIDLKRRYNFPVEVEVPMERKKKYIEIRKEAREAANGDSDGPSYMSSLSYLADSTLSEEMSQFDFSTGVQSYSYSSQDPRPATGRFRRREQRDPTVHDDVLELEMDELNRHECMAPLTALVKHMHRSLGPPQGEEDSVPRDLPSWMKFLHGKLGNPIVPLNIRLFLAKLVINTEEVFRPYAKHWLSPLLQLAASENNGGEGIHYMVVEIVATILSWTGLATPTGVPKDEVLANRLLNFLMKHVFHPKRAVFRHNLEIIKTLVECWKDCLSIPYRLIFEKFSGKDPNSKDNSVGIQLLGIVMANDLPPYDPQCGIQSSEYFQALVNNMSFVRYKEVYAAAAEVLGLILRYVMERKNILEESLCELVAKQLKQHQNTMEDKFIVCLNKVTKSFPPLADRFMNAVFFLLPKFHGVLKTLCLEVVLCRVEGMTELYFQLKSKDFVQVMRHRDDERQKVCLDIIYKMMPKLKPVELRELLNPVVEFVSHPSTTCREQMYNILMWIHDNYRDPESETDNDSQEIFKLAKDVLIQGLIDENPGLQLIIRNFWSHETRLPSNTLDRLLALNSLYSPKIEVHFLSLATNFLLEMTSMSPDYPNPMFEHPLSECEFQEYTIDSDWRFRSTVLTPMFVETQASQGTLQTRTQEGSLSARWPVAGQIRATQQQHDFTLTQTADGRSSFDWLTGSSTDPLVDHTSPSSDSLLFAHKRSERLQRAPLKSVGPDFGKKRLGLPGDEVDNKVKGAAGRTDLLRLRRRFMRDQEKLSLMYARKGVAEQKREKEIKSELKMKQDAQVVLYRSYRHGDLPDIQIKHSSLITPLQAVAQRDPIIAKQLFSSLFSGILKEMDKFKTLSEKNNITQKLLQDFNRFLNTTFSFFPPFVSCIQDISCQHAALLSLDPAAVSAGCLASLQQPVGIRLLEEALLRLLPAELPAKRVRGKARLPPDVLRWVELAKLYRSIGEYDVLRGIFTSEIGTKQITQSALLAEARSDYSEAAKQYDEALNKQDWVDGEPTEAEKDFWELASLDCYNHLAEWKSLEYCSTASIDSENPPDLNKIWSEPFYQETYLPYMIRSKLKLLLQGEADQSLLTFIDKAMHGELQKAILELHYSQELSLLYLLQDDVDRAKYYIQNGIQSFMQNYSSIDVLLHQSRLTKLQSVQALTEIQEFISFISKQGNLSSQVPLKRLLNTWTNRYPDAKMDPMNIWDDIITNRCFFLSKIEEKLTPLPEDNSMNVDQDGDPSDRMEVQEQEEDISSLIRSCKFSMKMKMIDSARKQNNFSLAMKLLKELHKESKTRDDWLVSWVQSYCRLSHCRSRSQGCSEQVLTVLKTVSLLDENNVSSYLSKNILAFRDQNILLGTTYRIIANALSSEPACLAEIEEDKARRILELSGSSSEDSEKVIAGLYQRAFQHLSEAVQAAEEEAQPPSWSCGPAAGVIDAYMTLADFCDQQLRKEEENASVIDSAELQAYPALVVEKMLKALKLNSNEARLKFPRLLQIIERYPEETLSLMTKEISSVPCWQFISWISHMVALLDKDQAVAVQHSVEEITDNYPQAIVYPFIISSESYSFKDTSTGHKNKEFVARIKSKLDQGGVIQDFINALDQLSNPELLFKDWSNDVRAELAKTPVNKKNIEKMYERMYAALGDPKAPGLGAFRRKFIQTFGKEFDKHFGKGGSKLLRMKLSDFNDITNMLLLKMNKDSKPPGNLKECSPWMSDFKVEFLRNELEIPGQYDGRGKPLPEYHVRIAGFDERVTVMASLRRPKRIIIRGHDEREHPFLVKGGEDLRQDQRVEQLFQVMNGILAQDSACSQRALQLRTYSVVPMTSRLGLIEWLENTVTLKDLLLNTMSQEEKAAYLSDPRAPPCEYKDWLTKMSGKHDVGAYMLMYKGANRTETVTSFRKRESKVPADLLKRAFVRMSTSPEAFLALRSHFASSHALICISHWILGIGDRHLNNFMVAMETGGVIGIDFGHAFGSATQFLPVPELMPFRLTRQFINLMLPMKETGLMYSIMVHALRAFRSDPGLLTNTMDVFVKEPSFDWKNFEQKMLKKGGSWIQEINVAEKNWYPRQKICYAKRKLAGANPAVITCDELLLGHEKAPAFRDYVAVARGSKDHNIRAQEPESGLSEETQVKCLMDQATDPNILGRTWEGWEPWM
UniProt O94906: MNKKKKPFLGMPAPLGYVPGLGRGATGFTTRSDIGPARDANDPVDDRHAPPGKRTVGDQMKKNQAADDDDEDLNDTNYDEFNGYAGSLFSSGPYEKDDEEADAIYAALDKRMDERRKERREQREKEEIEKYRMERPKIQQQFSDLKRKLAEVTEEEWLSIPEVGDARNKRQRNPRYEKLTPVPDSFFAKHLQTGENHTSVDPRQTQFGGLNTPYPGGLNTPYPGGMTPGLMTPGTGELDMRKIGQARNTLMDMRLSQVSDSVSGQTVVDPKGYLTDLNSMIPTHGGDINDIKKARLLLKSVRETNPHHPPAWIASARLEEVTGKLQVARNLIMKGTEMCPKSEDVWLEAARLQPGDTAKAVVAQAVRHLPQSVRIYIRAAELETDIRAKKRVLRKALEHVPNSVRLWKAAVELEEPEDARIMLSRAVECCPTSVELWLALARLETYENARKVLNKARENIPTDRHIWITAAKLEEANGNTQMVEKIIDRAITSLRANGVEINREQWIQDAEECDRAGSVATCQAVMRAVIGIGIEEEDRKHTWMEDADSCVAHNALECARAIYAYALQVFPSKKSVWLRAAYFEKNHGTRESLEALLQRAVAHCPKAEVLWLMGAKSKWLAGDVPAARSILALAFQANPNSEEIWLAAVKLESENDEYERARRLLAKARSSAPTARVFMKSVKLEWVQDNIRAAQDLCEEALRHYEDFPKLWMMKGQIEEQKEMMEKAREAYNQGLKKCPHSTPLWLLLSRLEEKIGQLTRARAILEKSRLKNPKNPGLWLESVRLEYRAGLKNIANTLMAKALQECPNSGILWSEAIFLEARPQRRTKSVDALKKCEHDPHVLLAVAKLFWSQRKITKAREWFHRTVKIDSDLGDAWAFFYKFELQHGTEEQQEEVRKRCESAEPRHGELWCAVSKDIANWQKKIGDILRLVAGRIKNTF
UniProt Q99873, whole entry, looked up: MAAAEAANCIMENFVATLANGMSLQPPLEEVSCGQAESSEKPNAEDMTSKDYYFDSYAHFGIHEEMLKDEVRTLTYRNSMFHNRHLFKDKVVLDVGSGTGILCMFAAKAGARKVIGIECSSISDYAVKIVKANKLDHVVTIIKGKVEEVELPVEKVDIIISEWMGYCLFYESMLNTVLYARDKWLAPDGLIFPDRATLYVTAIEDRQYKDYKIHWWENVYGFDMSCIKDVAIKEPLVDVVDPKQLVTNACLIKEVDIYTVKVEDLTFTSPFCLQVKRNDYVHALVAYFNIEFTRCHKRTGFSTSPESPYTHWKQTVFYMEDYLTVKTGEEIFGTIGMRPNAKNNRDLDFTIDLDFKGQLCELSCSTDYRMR
UniProt Q05655: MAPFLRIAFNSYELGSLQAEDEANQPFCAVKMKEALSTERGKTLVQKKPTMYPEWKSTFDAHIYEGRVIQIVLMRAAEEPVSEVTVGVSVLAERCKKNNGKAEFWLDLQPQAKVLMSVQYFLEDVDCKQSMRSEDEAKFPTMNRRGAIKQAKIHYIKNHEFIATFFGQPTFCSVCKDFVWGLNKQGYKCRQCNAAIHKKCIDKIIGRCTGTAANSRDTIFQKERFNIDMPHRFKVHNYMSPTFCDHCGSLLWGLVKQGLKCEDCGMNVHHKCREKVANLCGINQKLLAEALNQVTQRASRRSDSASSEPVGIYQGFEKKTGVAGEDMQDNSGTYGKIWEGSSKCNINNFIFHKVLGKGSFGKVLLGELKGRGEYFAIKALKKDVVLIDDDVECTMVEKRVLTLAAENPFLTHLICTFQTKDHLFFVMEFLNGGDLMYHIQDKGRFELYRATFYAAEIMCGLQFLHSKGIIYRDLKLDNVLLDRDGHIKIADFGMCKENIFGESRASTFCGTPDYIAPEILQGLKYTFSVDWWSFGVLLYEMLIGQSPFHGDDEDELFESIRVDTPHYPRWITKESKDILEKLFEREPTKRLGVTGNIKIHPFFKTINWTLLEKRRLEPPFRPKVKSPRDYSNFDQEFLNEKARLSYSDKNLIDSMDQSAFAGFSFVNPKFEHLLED
UniProt P49642: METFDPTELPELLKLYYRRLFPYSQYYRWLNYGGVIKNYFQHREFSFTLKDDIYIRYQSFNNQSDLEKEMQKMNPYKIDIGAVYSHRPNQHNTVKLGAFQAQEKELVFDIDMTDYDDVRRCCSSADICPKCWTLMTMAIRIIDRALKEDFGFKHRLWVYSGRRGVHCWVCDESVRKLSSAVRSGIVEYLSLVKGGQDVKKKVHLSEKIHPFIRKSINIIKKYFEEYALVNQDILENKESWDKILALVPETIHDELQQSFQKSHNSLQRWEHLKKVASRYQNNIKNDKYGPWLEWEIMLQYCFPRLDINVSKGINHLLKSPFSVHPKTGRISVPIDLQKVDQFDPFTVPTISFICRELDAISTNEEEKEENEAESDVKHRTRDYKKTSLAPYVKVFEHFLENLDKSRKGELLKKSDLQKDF

Compound: Cc1cc(ccc1-c1ccccc1)C(=O)N1CCCN(CC1)C(=O)CCl [compound 10]
Assay: probe-labelled cysteine peptide fold change vs DMSO (competition) (log2 fold change); higher = less target engagement (more negative = stronger competition)
Details: 50 µM; THP-1; incubation time: 4 h
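Also: competitive profiling in live THP-1 cells: cysteine peptides tagged with an iodoacetamide desthiobiotin (IA-DTB) probe, intensity after compound treatment relative to DMSO-treated cells.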

Target	probe-labelled cysteine peptide fold change
PRKD2_Q9BZL6_217_LGTSESLPCTAEELSR (UniProt Q9BZL6)	-0.386
PRKDC_P78527_3347_IIANALSSEPACLAEIEEDK (UniProt P78527)	0.0937
PRKDC_P78527_2342_NILEESLCELVAK (UniProt P78527)	0.199
PSIP1_O75475_204_QPCPSESDIITEEDK (UniProt O75475)	-1.03
PRKRA_O75569_54_NIPVYECER (UniProt O75569)	-0.191
PRR14L_Q5THK1_228_DLSAGCGEFQEVDK (UniProt Q5THK1)	-0.102
PRPF6_O94906_837_CEHDPHVLLAVAK (UniProt O94906)	-0.0758
PRMT1_Q99873_250_QLVTNACLIK (UniProt Q99873)	0.0238
PRKAB2_O43741_225_DTNISCDPALLPEPNHVMLNHLYALSIK (UniProt O43741)	-0.299
PRPF8_Q6P2Q9_2216+2223_TIIITCSFTPGSCTLTAYK (UniProt Q6P2Q9)	-0.0595
PRKCD_Q05655_175_NHEFIATFFGQPTFCSVCK (UniProt Q05655)	-0.472
PRKCD_Q05655_393_DVVLIDDDVECTMVEKR (UniProt Q05655)	-0.761
PRR14L_Q5THK1_1483_DTESCTSPCLLGAPR (UniProt Q5THK1)	-1.12
PRKD2_Q9BZL6_169_CDGCGLNYHK (UniProt Q9BZL6)	0.00149
PRIM1_P49642_354_VDQFDPFTVPTISFICR (UniProt P49642)	0.199
PRKDC_P78527_1364_KDLCNTHLMR (UniProt P78527)	-0.343
PRMT1_Q99873_272_VEDLTFTSPFCLQVK (UniProt Q99873)	0.272
PRKDC_P78527_1312_CFGTGAAGNR (UniProt P78527)	0.136
PRKD2_Q9BZL6_188_CAFSIPNNCSGAR (UniProt Q9BZL6)	-0.0796

3 entries picked at random from the list so far:
Target	probe-labelled cysteine peptide fold change
PRMT1_Q99873_272_VEDLTFTSPFCLQVK (UniProt Q99873)	0.272
PRIM1_P49642_354_VDQFDPFTVPTISFICR (UniProt P49642)	0.199
PRKCD_Q05655_393_DVVLIDDDVECTMVEKR (UniProt Q05655)	-0.761

Going on with the list.

Target	probe-labelled cysteine peptide fold change
PRKDC_P78527_1742_FNNYVDCMKK (UniProt P78527)	-0.562
PRKCD_Q05655_247_VHNYMSPTFCDHCGSLLWGLVK (UniProt Q05655)	-0.908
PRKD2_Q9BZL6_615_HPGIVNLECMFETPEK (UniProt Q9BZL6)	0.295
PRKDC_P78527_1432_ITAQSIEELCAVNLYGPDAQVDR (UniProt P78527)	-0.242
PRPF8_Q6P2Q9_2116_FICISDLR (UniProt Q6P2Q9)	0.162
PRKCB_P05771_217_CSLNPEWNETFR (UniProt P05771)	-0.192
PRPF6_O94906_550_HTWMEDADSCVAHNALECAR (UniProt O94906)	0.164
PRRC2C_Q9Y520_223_IACGPPQAK (UniProt Q9Y520)	-0.405
PRPF6_O94906_837_KCEHDPHVLLAVAK (UniProt O94906)	0.18
PRPF19_Q9UMS4_5+16_SLICSISNEVPEHPCVSPVSNHVYER (UniProt Q9UMS4)	0.103
PSMA1_P25786_92_QECLDSR (UniProt P25786)	-0.0433
PRPF8_Q6P2Q9_1896_GSELQLPFQACLK (UniProt Q6P2Q9)	0.217
PRKDC_P78527_1335_CTVVVR (UniProt P78527)	0.101
PREX1_Q8TCU6_972_QAPLEPHPLCGLDFCPTNCHINLMEVSYPK (UniProt Q8TCU6)	-0.198
PRMT1_Q99873-3_15_AAAEAANCIMEVSCGQAESSEK (UniProt Q99873)	0.146
PRMT1_Q99873-3_15_AAAEAANCIMEVSCGQAESSEKPNAEDMTSK (UniProt Q99873)	0.11
PRTN3_P24158_56_GNPGSHFCGGTLIHPSFVLTAAHCLR (UniProt P24158)	-0.165
PRXL2A_Q9BRX8_88_RPGCFLCR (UniProt Q9BRX8)	-2.18
PRKDC_P78527_42_GLGQECVLSSSPAVLALQTSLVFSR (UniProt P78527)	0.574
